Experiment: general procedure: solution-phase peptide synthesis; BOP-Cl / ethyldiisopropylamine; pentafluorophenyl ester for cyclisation

Substance	step yield (late stage modification step, overall)	cyclisation yield (cyclisation step)
Cyclo- N-hexanoyl-O- N- (2S,3S,4S)-4- (3S,4R,5S)-4-amino-3-(hydroxy)-5-methylheptanoyl!oxy-3-(hydroxy)-2,5-dimethyl-hexanoyl!-L-leucyl!-L-prolyl-N, O-dimethyl-L-tyrosyl!-L-threonyl!	90%	–
Cyclo- N^ε -benzyloxycarbonyl-N^β - N- (2S,3S,4S)-4- (3S,4R,5S)-4-amino-3-(hydroxy)-5-methylheptanoyl!oxy-3-(hydroxy)-2,5-dimethylhexanoyl!-L-leucyl!-L-prolyl- N,O-dimethyl-L-tyrosyl!-(2S, 3R)-diaminobutyryl!	–	42.2%

Reference: patent US5504189 (dated 1996)
